Reference: PubChem BioAssay AID504444 (National Center for Advancing Translational Sciences (NCATS), 2011)
Among all 360,000 compounds or so, about 7,500 (2.1%) were called active. The inconclusive results got no clear call from the source; some entries with a clear call stand among them for comparison. The call rests on the fitted dose curve; in most records, active means well fitted inhibition curve with a large enough effect; inconclusive means small, poorly fitted or top-dose-only effect, or effect the other way; inactive means flat fitted curve, though single readings scatter. Potencies of inconclusive entries are doubtful fits and often do not repeat.

Assay: Nrf2 qHTS screen for inhibitors; further: nearly all actives have a fitted effect of over 60% in size
Settings: A549 ARE-Fluc reporter, luciferase luminescence, 18-24 h; series mostly up to 46 µM
How it was run: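 A549 ARE_Fluc cells (5000/well, 5% FBS OPTI-MEM) pre-incubated 2 h, then treated with compounds 18-24 h at 37C/5% CO2 in concentration-response. CellTiter-Fluor viability read first; BugLite luciferase luminescence after 15 min at room temperature gives Nrf2 activity.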
Potency means the concentration at half of the fitted maximal effect.

Row | SMILES | Potency
1 | Clc1ccc(-c2nc(Cc3ccccc3)no2)cc1 | inconclusive: 23.1 µM [activator, single point]
2 | C/C(CCc1ccccc1)=N\NC(=S)NCCc1ccccc1 | inactive
3 | COc1ccc(CNC(=O)c2cc3c(C)nc4ccccc4c3o2)c(OC)c1 | active: 5.17 µM
4 | COc1cccc(C(c2c(NC(=O)c3ccccc3)sc(C)c2C)N2CCN(C)CC2)c1 (centres undefined) | inconclusive: 29.1 µM [falling, single point]
5 | O=C(O)CSc1nnc(-c2cccc(S(=O)(=O)N3CCOCC3)c2)n1-c1ccc(F)cc1 | inconclusive: 32.6 µM [activator, partial curve, poor fit]
6 | O=C1CC(c2cccc(Br)c2)c2cc3c(cc2N1)CCC3 (centres undefined) | inconclusive: 20.6 µM [falling, partial curve, poor fit]
7 | O=C(NCCSc1ccccc1)c1ccc(CN2CCOCC2)cc1 | inconclusive: 32.6 µM [activator, partial curve, poor fit]
8 | COc1ccc(S(=O)(=O)Nc2cccc(N(C)S(C)(=O)=O)c2)cc1Br | active: 18.4 µM
9 | COc1cccc(CN2CCN(c3nc4nonc4nc3N3CCCCC3)CC2=O)c1 | inactive
10 | Cc1cccc(OCC2Cn3c(nc4c3c(=O)[nH]c(=O)n4C)O2)c1 (centres undefined) | inconclusive: 2.31 µM [falling, full curve]
11 | CCCSc1ncc(Cl)c(C(=O)N(Cc2ccc(Cl)cc2)Cc2ccco2)n1 | active: 20.6 µM
12 | Cc1cccc(NC(=S)NN2CCN(C)CC2)c1 | inconclusive: 9.2 µM [activator, partial curve]
13 | COc1ccc(-n2nc([N+](=O)[O-])c(=NCCc3ccc(OC)c(OC)c3)n2O)cc1 | inconclusive: 18.4 µM [falling, single point]
14 | CCCOC(=O)c1ccc(Oc2cn[nH]c2-c2ccc(OC)cc2O)cc1 | inconclusive: 29.1 µM [falling, single point]
15 | COc1ccc2sc(N(CCCN(C)C)C(=O)c3ccc(S(=O)(=O)N4CCCc5ccccc54)cc3)nc2c1 | inactive
16 | COc1ccc(OCc2ccc(-c3nc(C#N)c(N4CCCCC4)o3)o2)cc1 | inconclusive: 32.6 µM [falling, single point]
17 | CCOC(=O)C1CCN(S(=O)(=O)c2ccc3c(c2)CCN3C(=O)C2CCC2)CC1 | inconclusive: 20.6 µM [activator, partial curve, poor fit]
18 | COc1ccc(NC(=O)CSc2nnc(Cc3ccc(C)cc3)c(=O)n2N)cc1OC | inactive
19 | CC(C)(C)c1ccc(OCc2ccc(C(=O)N/N=C/c3ccc([N+](=O)[O-])cc3)o2)cc1 | inconclusive: 0.116 µM [activator, full curve]
20 | Cc1ccc(CC(=O)c2ccc(Cl)cc2)cc1 | inconclusive: 25.9 µM [activator, single point]
21 | CCc1ccc(C(O)(C(C)C)C(CN2CCOCC2)c2ccccc2)cc1 (centres undefined) | inconclusive: 20.6 µM [falling, partial curve, poor fit]
22 | CN1CCN(C(=S)c2cn(CCOc3ccccc3F)c3ccccc23)CC1 | inconclusive: 32.6 µM [falling, partial curve, poor fit]

Row | SMILES | Potency
23 | CC(C)OCP(=O)(c1ccccc1)c1ccccc1 | inconclusive: 25.9 µM [activator, partial curve, poor fit]
24 | Cc1cc(C)cc(C(=O)Nc2ccncc2)c1 | inconclusive: 14.6 µM [falling, partial curve, poor fit]
25 | Cc1ccc(N/C=C/C(=O)c2cccs2)cc1C | inconclusive: 1.03 µM [activator, partial curve, poor fit]
26 | N#Cc1ccc(S(=O)(=O)N2CCC(C(=O)N3CCN(Cc4ccc5c(c4)OCO5)CC3)CC2)cc1 | active: 18.4 µM
27 | COc1cccc(CNC(=O)COc2cc3c(c4oc(=O)cc(C)c24)CCC(C)(C)O3)c1 | inconclusive: 29.1 µM [falling, single point]
28 | COc1ccc(/C=C/C(=O)N2CCN(c3ccccn3)CC2)c2ccccc12 | inconclusive: 23.1 µM [falling, single point]
29 | COC(=O)Cc1nc(NC(=O)c2cccs2)sc1C | inconclusive: 4.61 µM [activator, partial curve]
30 | CC(=O)c1sc2c(c1OC(=O)c1ccc(Cl)cc1Cl)c(=O)n(-c1ccccc1)c(=S)n2-c1ccccc1 | active: 3.26 µM
31 | CC(=O)c1ccc(NC(=O)CCc2c(C)nn(-c3ccc(N4CCOCC4)nn3)c2C)cc1 | inconclusive: 29.1 µM [falling, single point]
32 | Cc1cc(C)c(S(=O)(=O)NCCc2cc3ccc(C)c(C)c3[nH]c2=O)c(C)c1 | inconclusive: 29.1 µM [activator, single point]
33 | CC(C)(C)OC(=O)Cc1nnc(-c2nc3ccccc3[nH]2)o1 | inconclusive: 8.2 µM [activator, partial curve]
34 | COc1ccc(NC(=O)c2csc3c2CCCCC3)c(OC)c1 | inconclusive: 14.6 µM [falling, partial curve, poor fit]
35 | O=C(OCC#CCSc1nnc(-c2cccc3ccccc23)o1)c1cccs1 | inconclusive: 25.9 µM [falling, partial curve, poor fit]
36 | CC(C)CC(=O)Nc1nnc(S(=O)(=O)N(CC(C)C)c2ccccc2)s1 | inconclusive: 0.146 µM [falling, full curve, poor fit]
37 | COc1ccc(NC(=O)COc2ccc3c(c2)OCO3)cc1 | inconclusive: 6.51 µM [activator, full curve]
38 | CCCc1nn(C)c(C(=O)Nc2cccc(C)c2)c1Cl | inconclusive: 29.1 µM [activator, single point]
39 | CCOc1cc(-c2c(C#N)c(N)nc3c2CCCC3)ccc1O | inconclusive: 13 µM [falling, partial curve, poor fit]
40 | Cc1ccc(CNC(=O)CCC(=O)N2CC3CCCN3c3ccccc32)cc1 (centres undefined) | inconclusive: 32.6 µM [activator, single point]
41 | O=C(CN1CCCCC1)Nc1ccc(NC(=O)c2ccccc2Cl)cc1Cl | inconclusive: 9.2 µM [falling, partial curve, poor fit]
42 | O=S(=O)(NC1CC1)c1ccc2c3c(cccc13)CC2 | inconclusive: 32.6 µM [falling, single point]
43 | Cc1cc(C)c2c(N)c(C(=O)c3ccccc3)oc2n1 | inactive
44 | O=C(Nc1ccc2oc(-c3cc(Br)ccc3Cl)nc2c1)c1cc2ccccc2o1 | inconclusive: 3.26 µM [activator, partial curve, poor fit]

An excerpt from the list above, for reference:
Row | SMILES | Potency
39 | CCOc1cc(-c2c(C#N)c(N)nc3c2CCCC3)ccc1O | inconclusive: 13 µM [falling, partial curve, poor fit]
40 | Cc1ccc(CNC(=O)CCC(=O)N2CC3CCCN3c3ccccc32)cc1 (centres undefined) | inconclusive: 32.6 µM [activator, single point]
41 | O=C(CN1CCCCC1)Nc1ccc(NC(=O)c2ccccc2Cl)cc1Cl | inconclusive: 9.2 µM [falling, partial curve, poor fit]
42 | O=S(=O)(NC1CC1)c1ccc2c3c(cccc13)CC2 | inconclusive: 32.6 µM [falling, single point]

Continuation.

Row | SMILES | Potency
45 | O=c1c2ccccc2c(-c2ccc(O)cc2)nn1-c1cccc(C(F)(F)F)c1 | active: 23.1 µM
46 | Cc1nc(-c2ccc(S(=O)(=O)NCC3CCN(C(=O)OC(C)(C)C)CC3)s2)cs1 | inconclusive: 23.1 µM [falling, single point]
47 | CCOc1ccc(N(CC(=O)NCc2ccc(OC)cc2)S(C)(=O)=O)cc1 | inconclusive: 13 µM [activator, partial curve]
48 | O=S(=O)(Nc1ccc(O)c(Sc2nc3ccccc3s2)c1)c1ccc(Cl)cc1 | inconclusive: 23.1 µM [falling, single point]
49 | O=C(/C=C/NNC(=O)c1ccccc1)c1ccc([N+](=O)[O-])cc1 | inconclusive: 29.1 µM [falling, single point]
50 | COc1ccccc1Oc1coc2c(CN3CCOCC3)c(O)ccc2c1=O | inactive
51 | O=C(Nc1cccc([N+](=O)[O-])c1)c1cc(S(=O)(=O)N2CCOCC2)cs1 | inconclusive: 20.6 µM [falling, partial curve, poor fit]
52 | Cc1nc2c(cnn2-c2ccccc2Cl)c(=O)n1-c1ccc(N2CCC(C)CC2)cc1 | inconclusive: 29.1 µM [falling, single point]
53 | CC(C)C(=O)Nc1ccc(COc2ccccc2CN(Cc2ccccc2)C(=O)OC(C)(C)C)cc1 | inconclusive: 18.4 µM [activator, single point]
54 | Cn1c(O)c(N=Nc2ccccc2)c2ccccc21 | inconclusive: 20.6 µM [activator, single point]
55 | COc1ccc2sc(-c3ccc(N(C)C)cc3)c(-c3cnc(OC)nc3)c2c1 | inconclusive: 5.8 µM [activator, partial curve, poor fit]
56 | CCOc1ccc(NC(=O)C(CC)n2c(=O)c(-c3ccccc3NC(C)=O)nc3ccccc32)cc1 (centres undefined) | inconclusive: 11.6 µM [falling, partial curve, poor fit]
57 | COc1cc(C2(c3ccc(O)c(OC)c3)C(=O)N(C)c3ccc(Br)cc32)ccc1O | inactive
58 | Cc1cc(C(=O)COc2ccc(-c3nnco3)cc2)c(C)n1Cc1ccccc1 | inconclusive: 23.1 µM [falling, partial curve, poor fit]
59 | COCCNC(=O)C(C#N)c1nc2ccccc2nc1N1CCCCCC1 (centres undefined) | inactive
60 | Cc1ccc(CNC(=O)Cn2cc(S(=O)(=O)Cc3ccccc3Cl)c3ccccc32)cc1 | inactive
61 | COc1ccc(N2C(=O)CC(Sc3nc4ccccc4s3)C2=O)cc1OC (centres undefined) | inactive
62 | COc1ccccc1OCCSc1nc(-c2ccc(C(C)(C)C)cc2)nc2cc(=O)[nH]n12 | inconclusive: 23.1 µM [falling, single point]
63 | Cc1ccc(CN2CCN(CC(C)C)C(CCO)C2)s1 (centres undefined) | inconclusive: 9.2 µM [activator, partial curve]
64 | CC(C)CN(C)C(=O)CCc1nnc(Cc2ccc(-c3ccccc3)cc2)o1 | inconclusive: 32.6 µM [falling, single point]
